{"source": "patent US10434086B2", "about": "“Combination therapies with curaxins” (Incuron, Inc., priority 2014, dated 2019)", "system": "patient-derived PDA #13756 tumors", "test": "PDA #13756 study: CBL0137/gemcitabine against patient-derived pancreatic tumor engrafts", "format": "in vivo, SCID mice", "details": "Day 15; gemcitabine 40 mg/kg ip Q4d, CBL0137 80 mg/kg iv 1×/wk, 4 weeks", "from_the_text": "Seventy and sixty female athymic nude mice were obtained for each H1975 Non-Small Cell Lung Cancer Xenograft study and split into treatment groups consisting of 10 animals per group (2 cages of 5 mice per cage).\nPreparation and subcutaneous implantation of tumor pieces: HepG2 tumors (passage 2 for HepG2 study and passage 1 for HepG2 (sub-dose CLB0137) study) or Hep3B tumors (passage 1 for Hep3B study and passage 9 for Hep3B (sub-dose CLB0137) study) were propagated in athymic nude mice and harvested from euthanized mice when they reached ˜500-900 mm^3. PDA tumors (passage 6) were propagated in SCID mice (both flanks) and harvested from euthanized mice when they reached ˜600-700 mm^3 in size. […]\nTumor Size Measurements: Tumor size was measured by digital caliper in two dimensions (in mm): maximum length (l) and maximum width (w) taken perpendicular to one another. […]\nMonitoring and Sample Collection: Twice daily, mice were monitored for mortality and morbidity for the duration of the experiment. […] All abnormal observations were documented and semi-quantitative scores were assigned for “body condition,” “posture,” and “activity.” Scores of 4, 3, 2, and 1 were assigned to normal conditions (4), and slightly (3), moderately (2) and severely (1) abnormal conditions, respectively. […]\nData analysis: For all study groups, maximum tumor growth inhibition was calculated for Day 11, 13, or 15 (Day X). […]", "note": "Some of these results come from one statement about several compounds together.", "data": [{"smiles": "Nc1ccn([C@@H]2O[C@H](CO)[C@@H](O)C2(F)F)c(=O)n1", "note": "[gemcitabine]", "values": [{"measurement": "mean fold tumor growth", "result": "< 1.0", "unit": "fold"}]}]}
